This note sets out measurements from US20090023672.

Construct, isoform or probe ends are uncertain for at least one entry.

The series has as its target AGE-2 (glyceraldehyde-derived advanced glycation end product of human serum albumin) HSA glycated with D-glyceraldehyde at 37 C for 7 days, dialysed against PBS (Homo sapiens) (UniProt P02768). In words: SELEX. Conditions: room temperature, counter-selected against HSA beads, single-stranded DNA.

Turning to “GCCAAGCCAGGGCGGGGTCATGTGGTTGTTTGACTTGATTGTGGCCGCTCAGTGCAGCCGA [AGE-2 aptamer 35]”, the selection result (purified native protein) is “selected”.
Still for that read-out and setting: as for “GCCAATCGCCGCACCCACCCAACCCCTGCCACGGCTAGCAACTGCATCATCGCAACC [AGE-2 aptamer 23]”, the entry is “selected”; as for “GCCATCCGTCCCCGGAACACTCACACACCCCATCCGCAACCCCCCCCACTCCACCGCC [AGE-2 aptamer 16]”, “selected”; as for “GCGCACATATTACTTCCTCAATCAACGCCCACCGAACACTCCCGTCACACTACAACC [AGE-2 aptamer 17]”, “selected”.
Still for that read-out and setting: as for “GCGGGACGCGCGGGAGGATCCGGGGGTTGTGCTTGGGTGGCCGGATGTCCGGTTATTGTTGT [AGE-2 aptamer 38]”, the entry is “selected”; as for “GCGTGACACCTATCTAACCAACAGCCACCCATCCAACACCCGCTAACCCCACTCTCG [AGE-2 aptamer 22]”, “selected”.
On the same count and under the same terms, next, “GGACAAGCAGAAGCGGTGAGTCGGTTTGTGTGGCATGCGGCGGTGGTTGCCTGTGTCCATCGA [AGE-2 aptamer 27]”: “selected”.
As for “GGACAAGCAGAAGCGGTGAGTCGGTTTGTGTGGCATGCGGCGGTGGTTGCCTGTGTCCATCGA [AGE-2 aptamer 36]”, the selection result (same printed sequence as SEQ 27, purified native protein) is reported as “selected”.
As to “GGACAAGCATGGTGAGGCTAGGTTCGGCGGGTGCGGATGGCATTCGGTGGGATCTTTGGCGGGT [AGE-2 aptamer 26]”, for the setting “purified native protein”, the selection result is given as “selected”.
“GGACAAGCTCTTGTGGCGGTTGGCCCCTTAGCGGTTCGGGAGTTTCACAGTCACGGTCGGGGTG [AGE-2 aptamer 29]”: under “purified native protein”, the selection result is on record as “selected”.
For “GGACAAGCTCTTGTGGCGGTTGGCCCCTTAGCGGTTCGGGAGTTTCACAGTCACGGTCGGGGTG [AGE-2 aptamer 37]”, the selection result (same printed sequence as SEQ 29, purified native protein) is recorded as “selected”.
In the case of “GGACCGTTTCACTCATTACCCCCCATCACACGCCACAGATACTACCCCATACACCCA [AGE-2 aptamer 18]”, the selection result (purified native protein) is recorded as “selected”.
Turning to “GGCAAGCTGTCCCTAGGCGGTGGGTAGCAAGTTCGTGGGCCGCGCAGTGTCTTGGCAGTTCC [AGE-2 aptamer 39]”, the selection result (purified native protein) is listed as “selected”.
On the same count and under the same terms, as for “GGCCAAGCAGGTAAGTGCGGGGTCCGGTTGGTTGTTCGGGTCTCGCGTGCAATATCACGTGT [AGE-2 aptamer 25]”, the entry is “selected”.
In the case of “GGCCAAGCAGGTAAGTGCGGGGTCCGGTTGGTTGTTCGGGTCTCGCGTGCAATATCACGTGT [AGE-2 aptamer 33]”, the selection result (same printed sequence as SEQ 25, purified native protein) is on record as “selected”.
With “GGCCAAGCAGGTAAGTGCGGGGTCCGGTTGGTTGTTCGGGTCTCGCGTGCAATATCACGTGT [AGE-2 aptamer 40]”, the selection result (listing 62, purified native protein) is “selected”.
On to “GGCCAAGCATCGATGCCCGTGTTGGCCTGTGCGGGGGATTGTAGTGTGCCTCGGGTGTGCATGAG [AGE-2 aptamer 28]”, for which the selection result (purified native protein) was “selected”.
In the case of “GGCCAAGCATCGATGCCCGTGTTGGCCTGTGCGGGGGATTGTAGTGTGCCTCGGGTGTGCATGAG [AGE-2 aptamer 32]”, the selection result (purified native protein) was “selected”.
Still for that read-out and setting: as for “GGGCAAGCTGGTATAAGTATGCAATCTGCGGTGATATCCCATCAGTGTGTTTGGCTGTGGAT [AGE-2 aptamer 34]”, the entry is “selected”.
With “GGGCAAGCTGGTATAAGTATGCAATCTGCGGTGATATCCCATCAGTGTGTTTGGCTGTGGAT [AGE-2 aptamer 41]”, the selection result (same printed sequence as SEQ 34, purified native protein) is “selected”.
For “GGGCAAGCTGGTATAAGTATGCAATCTGCGGTGATATCCCATCAGTGTGTTTGGCTGTGTCTGGCT [AGE-2 aptamer 30]”, the selection result (purified native protein) is on record as “selected”.
As for “GGTGCGTACCCACCCCCCAAACACCCAACTCCCACCACCTCGCCAACCCGAAAACAC [AGE-2 aptamer 21]”, the selection result (purified native protein) is recorded as “selected”.
For the sequence “GTACATACACCGACCACCATCACAAGCACCAACTCACCAAACATGAACTACACCAAC [AGE-2 aptamer 19]”, the selection result (listing gtacata, purified native protein) was “selected”.
Consider “GTACCTGCCCTCCCCGCGTTAAAATCACACTACAACACACCAATCGTAGAAAACTAA [AGE-2 aptamer 24]”, for which the selection result (purified native protein) is “selected”.
Still for that read-out and setting: as for “GTCCCCATTTCCAGCCCCTTCTCATTCACCACTCACACAACCAATACAACCAGCCCA [AGE-2 aptamer 20]”, the entry is “selected”; as for “GTGCAAGCTGATGGTTCGGTAGTTTCGGATGTTTGTGTCGTTGCTCGCGTTGTGAATGTGCT [AGE-2 aptamer 31]”, “selected”.
